From publication PMC10185471
Results are given in words; binding and its absence hold for the method and conditions named. Binding seen in cells or lysates may run through a third protein. These calls come from enrichment with a bait or labelling near it, and not all partners need be listed.

Protein sequences, listed by entry. Tags and fused reporters are not part of them. Residues count along the entry.
UniProt Q9Z2G6, residues 22-790: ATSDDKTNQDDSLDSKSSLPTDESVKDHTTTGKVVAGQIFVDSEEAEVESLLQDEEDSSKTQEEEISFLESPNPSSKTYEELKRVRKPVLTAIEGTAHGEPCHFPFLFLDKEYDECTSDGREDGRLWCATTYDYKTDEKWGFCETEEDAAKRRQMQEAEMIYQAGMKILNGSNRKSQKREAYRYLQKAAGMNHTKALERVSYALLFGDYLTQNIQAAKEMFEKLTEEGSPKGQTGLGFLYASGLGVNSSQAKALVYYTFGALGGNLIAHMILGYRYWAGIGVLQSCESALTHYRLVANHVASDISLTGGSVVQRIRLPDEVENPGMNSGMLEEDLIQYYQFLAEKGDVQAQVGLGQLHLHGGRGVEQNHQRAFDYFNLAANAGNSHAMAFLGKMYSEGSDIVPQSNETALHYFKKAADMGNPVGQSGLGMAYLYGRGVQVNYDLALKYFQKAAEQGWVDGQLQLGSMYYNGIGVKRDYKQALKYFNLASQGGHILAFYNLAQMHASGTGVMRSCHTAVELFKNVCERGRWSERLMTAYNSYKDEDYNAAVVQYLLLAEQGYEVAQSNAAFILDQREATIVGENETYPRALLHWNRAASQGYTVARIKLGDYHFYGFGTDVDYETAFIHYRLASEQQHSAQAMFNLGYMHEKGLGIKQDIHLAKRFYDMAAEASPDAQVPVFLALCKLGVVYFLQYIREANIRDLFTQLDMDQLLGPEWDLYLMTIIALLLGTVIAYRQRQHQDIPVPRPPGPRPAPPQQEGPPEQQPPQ

Biological target: SEL1L-TurboID-V5 (UniProt Q9Z2G6)
Assay: proximity labelling; MEF transfected with SEL1L-TurboID-V5 (in the presence of H151), cGAMP for the indicated times, 50 µM biotin 10 min at 37 °C; streptavidin agarose, immunoblot

- binding: binds
B1: CALNEXIN, endogenous, mouse (protein, UniProt P35564 21-591)
chain: HDGHDDDAIDIEDDLDDVIEEVEDSKSKSDASTPPSPKVTYKAPVPTGEVYFADSFDRGSLSGWILSKAKKDDTDDEIAKYDGKWEVDEMKETKLPGDKGLVLMSRAKHHAISAKLNKPFLFDTKPLIVQYEVNFQNGIECGGAYVKLLSKTAELSLDQFHDKTPYTIMFGPDKCGEDYKLHFIFRHKNPKTGVYEEKHAKRPDADLKTYFTDKKTHLYTLILNPDNSFEILVDQSVVNSGNLLNDMTPPVNPSREIEDPEDRKPEDWDERPKIADPDAVKPDDWDEDAPSKIPDEEATKPEGWLDDEPEYIPDPDAEKPEDWDEDMDGEWEAPQIANPKCESAPGCGVWQRPMIDNPNYKGKWKPPMIDNPNYQGIWKPRKIPNPDFFEDLEPFKMTPFSAIGLELWSMTSDIFFDNFIISGDRRVVDDWANDGWGLKKAADGAAEPGVVLQMLEAAEERPWLWVVYILTVALPVFLVILFCCSGKKQSNAMEYKKTDAPQPDVKDEEGKEEEKNKRDEEEEEEKLEEKQKSDAEEDGVTGSQDEEDSKPKAEEDEILNRSPRNRKPRRE
